Laboratory results from PubChem BioAssay AID190 (DTP/NCI, 2004).
The list shows only some results of the screen, not a fair sample: it gathers tests that were run many times, whatever their T/C, doses with no T/C, and many T/C values between a quarter and a half above the control. Other doses and runs of a compound stand elsewhere. T/C gives the treated animals as a percentage of the vehicle group. Some doses have a count of surviving animals in place of a T/C: the source files T/C as zero there, which appears to mark a toxic dose or a test without result, not a measured value. Some doses without a T/C left all or most animals alive at the check, yet need not have been tolerated: the source hardly ever lists a survival T/C far under the control, and the zero likely stands for such cases as well. Counts of survivors are from the toxicity check (mostly the fifth day) where no day follows; animals may have died later. Schedule codes are those of the source, read here as Q, the interval in days (D) or hours (H), X, the number of doses. Some entries hold several experiments; their values stand side by side, smallest first. Where survival is the endpoint, this PubChem deposit counts one and a half times the control or more as active, and values a quarter to a half above the control carry no call in these data; other NCI protocols may use other cut-offs. Signs of the kind (2×) count equal records among those shown. Some T/C values carry the count of animals alive at the toxicity check (mostly the fifth day); where none is given, no animal had died by that day.

Tested on: AKR/Lw mice, AKR lymphoma ip, median survival T/C
Experiment: NCI In Vivo Anticancer Drug Screen. Data for tumor model Lymphoma AKR (Transplanted) (intraperitoneal) in AKR/Lw mice
Details: T/C endpoint: median survival time, higher T/C = longer survival
Protocol: The antitumor activity of compounds was measured in mice bearing transplantable tumors. Survival or tumor size were measured and the results are expressed as the measurement made in the treated group (T) divided by the measurement made in the vehicle treated control group (C). The tumor model used in this assay is Lymphoma AKR (Transplanted) (intraperitoneal) in AKR/Lw mice

[1] = dose: 31.25 mg/kg/injection, schedule: Q06HX004 (ip), vehicle: saline
[2] = dose: 40.0 mg/kg/injection, schedule: Q06HX016 (ip), vehicle: Klucel (hydroxypropylcellulose) (HPC)
[3] = dose: 50.0 mg/kg/injection, schedule: Q06HX016 (ip), vehicle: Klucel (hydroxypropylcellulose) (HPC)
[4] = dose: 60.0 mg/kg/injection, schedule: Q06HX016 (ip), vehicle: Klucel (hydroxypropylcellulose) (HPC)

## Nc1nc(=S)c2[nH]cnc2[nH]1
dose: 4.0 mg/kg/injection, schedule: Q01DX009 (ip), vehicle: saline
  survivor count: 9 of 10
dose: 4.0 mg/kg/injection, schedule: Q04DX003 (ip), vehicle: saline
  survivor count: 10 of 10
dose: 8.0 mg/kg/injection, schedule: Q01DX009 (ip), vehicle: saline
  survivor count: 10 of 10
dose: 16.0 mg/kg/injection, schedule: Q01DX009 (ip), vehicle: saline
  survivor count: 10 of 10
dose: 32.0 mg/kg/injection, schedule: Q04DX003 (ip), vehicle: saline
  survivor count: 9 of 10
dose: 64.0 mg/kg/injection, schedule: Q04DX003 (ip), vehicle: saline
  survivor count: 10 of 10

## NC(=S)N/N=C/c1ccc(O)cn1
dose: 1.5 mg/kg/injection, schedule: Q01DX009 (ip), vehicle: Klucel (hydroxypropylcellulose) (HPC)
  T/C: 143 % of control
dose: 6.25 mg/kg/injection, schedule: Q01DX009 (ip), vehicle: Klucel (hydroxypropylcellulose) (HPC)
  T/C: 130 % of control
dose: 12.5 mg/kg/injection, schedule: Q01DX009 (ip), vehicle: Klucel (hydroxypropylcellulose) (HPC)
  T/C: 140 % of control
dose: 20.0 mg/kg/injection, schedule: Q06HX016 (ip), vehicle: Klucel (hydroxypropylcellulose) (HPC)
  T/C: 100, 112 (2×), 125 % of control
dose: 25.0 mg/kg/injection, schedule: Q01DX009 (ip), vehicle: Klucel (hydroxypropylcellulose) (HPC)
  T/C: 126 % of control
dose: 30.0 mg/kg/injection, schedule: Q06HX012 (ip), vehicle: Klucel (hydroxypropylcellulose) (HPC)
  T/C: 134 % of control
dose: 30.0 mg/kg/injection, schedule: Q06HX016 (ip), vehicle: Klucel (hydroxypropylcellulose) (HPC)
  T/C: 106, 112, 131, 146 % of control
[1]
  T/C: 138 % of control
  survivor count: 9 of 10
dose: 31.25 mg/kg/injection, schedule: Q06HX008 (ip), vehicle: saline
  survivor count: 5 of 10
[2]
  T/C: 87, 109, 125 % of control
  survivor count: 10 of 10
[3]
  T/C: 92 [9 of 10 alive] and 106 % of control
  survivor count: 9 of 10 and 10 of 10
[4]
  T/C: 118 % of control (2×)
  survivor count: 10 of 10
dose: 62.5 mg/kg/injection, schedule: Q06HX004 (ip), vehicle: saline
  survivor count: 9 of 10 and 10 of 10
dose: 100.0 mg/kg/injection, schedule: Q01DX009 (ip), vehicle: Klucel (hydroxypropylcellulose) (HPC)
  survivor count: 10 of 10
dose: 125.0 mg/kg/injection, schedule: Q06HX004 (ip), vehicle: saline
  survivor count: 7 of 10, 8 of 10, 10 of 10
dose: 125.0 mg/kg/injection, schedule: Q06HX016 (ip), vehicle: saline
  survivor count: 8 of 10
dose: 200.0 mg/kg/injection, schedule: Q01DX009 (ip), vehicle: Klucel (hydroxypropylcellulose) (HPC)
  survivor count: 10 of 10
dose: 400.0 mg/kg/injection, schedule: Q04DX003 (ip), vehicle: Klucel (hydroxypropylcellulose) (HPC)
  survivor count: 8 of 10

## COc1cc(N)c2ncccc2c1SC
dose: 100.0 mg/kg/injection, schedule: Q01DX001 (ip), vehicle: saline
  survivor count: 10 of 10

## c1cc2cc3c(cc2c2c1CC1c4cc5c(cc4CCN1C2)OCO5)OCO3 (stereo unspecified)
dose: 400.0 mg/kg/injection, schedule: Q01DX001 (ip), vehicle: Klucel (hydroxypropylcellulose) (HPC)
  survivor count: 10 of 10

## COC(=O)C1(C)CCC(c2ccc(OC)cc2)C(CC(=O)O)C1=O (stereo unspecified)
dose: 200.0 mg/kg/injection, schedule: Q04DX003 (ip), vehicle: Klucel (hydroxypropylcellulose) (HPC)
  survivor count: 9 of 10
